Measurements from PubChem BioAssay AID1347076 (National Center for Advancing Translational Sciences (NCATS), 2019).
In all, about 400,000 compounds went through this assay and about 13,000 (3.2%) were called active. Inconclusive results, whose numbers are uncertain, are shown with a selection of clear calls. Calls follow the shape of the dose curve; as a rule, active = well fitted cell-killing curve with a large enough effect; inconclusive = small, poorly fitted or top-dose-only effect, or effect the other way; inactive = flat fitted curve, though single readings scatter. Potencies of inconclusive entries are doubtful fits and often do not repeat.

test: qHTS assay for MDR1-selective chemotherapeutics: Primary screen using the drug-selected MDR subline cells KB-V1; settings: KB-V1 MDR cells viability, CellTiter-Glo, 72 h; activity change, negative = cytotoxicity: at 46.1 µM (top of the series); also: nearly all actives have a fitted effect of over 60% in size
Outline: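 Compound-treated KB-V1 multidrug-resistant cells, 72 h, 37 degrees C; viability by CellTiter-Glo. Fitted qHTS curves give the values.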
% is scaled to controls: 0 for no effect and ±100 for the full control effect; potency is read from the fitted curve at half-maximal effect.

| Compound | activity change, negative = cytotoxicity | Potency |
| --- | --- | --- |
| O=C(N/N=C/c1ccc(O)cc1)c1ccc(NC(=O)c2ccccc2Br)cc1 | inactive: 4.87% | – |
| O=C(COC(=O)c1ccco1)Nc1ccc(Br)cc1 | inactive: 7.84% | – |
| COc1cc(/C=N/N=C2/NC(=O)C(Cc3ccccc3)S2)ccc1O (stereo not given) | – | inconclusive: 29.1 µM [cytotoxic, single point] |
| Cc1ccc2c(c1)C(c1ccc(F)cc1)N(C(=O)COc1ccc(Cl)cc1Cl)CC(=O)N2 (stereo not given) | – | inconclusive: 20.6 µM [cytotoxic, single point] |
| CC1CCN(C(=O)CN(Cc2ccc(Cl)cc2)S(C)(=O)=O)CC1 | – | inconclusive: 29.1 µM [cytotoxic, single point] |
| CC1CCN(C(=O)c2cccc(S(=O)(=O)N3CCN(c4ccccc4)CC3)c2)CC1 | – | inconclusive: 9.2 µM [cytotoxic, partial curve] |
| O=C(Nc1ccc(S(=O)(=O)N2CCCCC2)cc1)c1ccccc1F | – | inconclusive: 29.1 µM [rising, single point] |
| Cc1cccc(NC(=O)c2ccc(N(Cc3ccccc3)S(C)(=O)=O)cc2)c1 | – | inconclusive: 32.6 µM [rising, single point] |
| Cc1cc(C)nc(NCCCc2ccccc2)n1 | inactive: -24.9% | – |
| CC1CCc2sc3ncn4nc(C(=O)NCc5ccco5)nc4c3c2C1 (stereo not given) | – | active: 6.51 µM |
| O=C(NNC(=O)c1ccccc1Br)c1ccc(SCC2CCCO2)c([N+](=O)[O-])c1 (stereo not given) | – | active: 23.1 µM |
| CC1CC(C)CN(S(=O)(=O)c2ccc(C(=O)NCc3ccco3)cc2)C1 (stereo not given) | – | inconclusive: 6.51 µM [cytotoxic, partial curve] |
| CCc1nnc(NC(=O)C(NC(=O)c2ccccc2Cl)C(C)C)s1 (stereo not given) | – | inconclusive: 18.4 µM [cytotoxic, single point] |
| COC(=O)[C@@]12C[C@@H](CC(=O)NCc3cccs3)C(=O)N(CCc3ccc(OC)c(OC)c3)C1=CCC(C)(C)C2 | – | inconclusive: 4.11 µM [cytotoxic, partial curve] |
| CCCCN(CCCC)S(=O)(=O)c1ccc(C(=O)Nc2nnc(COC)o2)cc1 | – | inconclusive: 8.2 µM [cytotoxic, partial curve] |
| CC(=O)c1ccccc1NC(=O)c1ccc2c(c1)NC(=O)C(C)S2 (stereo not given) | – | inconclusive: 20.6 µM [cytotoxic, single point] |
| C=CCn1c(SCN2C(=O)c3ccccc3C2=O)nc2ccc(Cl)cc2c1=O | – | active: 16.4 µM |
| COc1cccc(C(=O)Nn2c(-c3cccs3)nc3ccccc3c2=O)c1OC | – | inconclusive: 10.3 µM [cytotoxic, partial curve] |
| N#Cc1c(-c2ccccc2)nc(SCC(=O)NC2CCCCC2)[nH]c1=O | – | inconclusive: 29.1 µM [rising, single point] |
| COc1cc(N(C)C)c(OC)cc1/C=C/c1ccnc2ccccc12 | inactive: 0% | – |
| COC(=O)C1=C(CS(=O)(=O)c2cc(Cl)ccc2OC)NC(=O)NC1c1ccccc1 (stereo not given) | inactive: 0% | – |
| Cc1ccc(S(N)(=O)=O)cc1NC(=O)/C=C/c1cccs1 | – | inconclusive: 20.6 µM [rising, single point] |
| COc1ccc(N(C(=O)c2cccnc2)S(=O)(=O)c2ccc3c4c(cccc24)C(=O)N3C)cc1 | – | active: 16.4 µM |
| COc1ccc(CCNC(=O)c2csc3c2CCCC3)cc1 | – | inconclusive: 25.9 µM [cytotoxic, single point] |

Whole records, quoted from the list.
N#Cc1c(-c2ccccc2)nc(SCC(=O)NC2CCCCC2)[nH]c1=O as listed: Potency: inconclusive: 29.1 µM [rising, single point]
CC1CCN(C(=O)CN(Cc2ccc(Cl)cc2)S(C)(=O)=O)CC1 as listed: Potency: inconclusive: 29.1 µM [cytotoxic, single point]
O=C(Nc1ccc(S(=O)(=O)N2CCCCC2)cc1)c1ccccc1F as listed: Potency: inconclusive: 29.1 µM [rising, single point]

Following part

| Compound | activity change, negative = cytotoxicity | Potency |
| --- | --- | --- |
| CC(=O)c1c(C)nc2nc(-c3ccccc3)nn2c1C | – | inconclusive: 23.1 µM [cytotoxic, single point] |
| CC1=NN(c2nc(-c3ccccc3)cs2)C(=O)C1 | inactive: 17.4% | – |
| Cc1ccc(C)c(OCC(O)CN2CCC(CN3C(=O)c4cccc5cccc(c45)C3=O)CC2)c1 (stereo not given) | – | active: 2.59 µM |
| O=C(/C=C/c1ccc(O)cc1)c1ccc(O)cc1O | – | inconclusive: 23.1 µM [cytotoxic, single point] |
| CCCCc1c(-c2ccccc2F)ncn1CCc1ccccc1OC | – | active: 14.6 µM |
| CC1(C)Oc2ccc3ccc(=O)oc3c2/C(=C/Nc2ccccc2)C1=O | – | inconclusive: 20.6 µM [cytotoxic, single point] |
| COc1ccc([C@H]2[C@H]3C=CC[C@@H](C)[C@@H]3C(=O)N2Cc2ccccc2)cc1Cl | – | inconclusive: 9.2 µM [cytotoxic, partial curve, poor fit] |
| CCC(CC)c1nc(C#N)c(NCc2ccccc2)o1 | – | inconclusive: 13 µM [cytotoxic, partial curve, poor fit] |
| O=C(Nc1ccccc1)C(Cc1ccccc1)c1ccccc1 (stereo not given) | – | inconclusive: 10.3 µM [cytotoxic, partial curve] |
| CCOC(=O)c1ccc(Nc2c(-c3ccc(O)c(OC)c3)nc3nc[nH]n23)cc1 | – | inconclusive: 29.1 µM [rising, single point] |
| COC(=O)c1sccc1NC(=O)c1ccc(OC)cc1OC | – | inconclusive: 32.6 µM [cytotoxic, single point] |
| O=S(=O)(Nc1ncnc2scc(-c3ccc(F)cc3)c12)c1cc(F)ccc1F | – | active: 18.4 µM |
| COc1cc(NS(=O)(=O)c2ccc3c(c2)CCN3S(C)(=O)=O)cc(OC)c1 | – | inconclusive: 20.6 µM [cytotoxic, single point] |
| CCOc1ccccc1N1CCN(C(=O)c2ccc3[nH]c(C)c(C)c3c2)CC1 | – | active: 6.51 µM |
| CC(C)N(Cc1nc(-c2ccccc2)no1)C(=O)CCCN1C(=O)c2ccccc2C1=O | inactive: -11.3% | – |
| CC(=O)Nc1ccc(CN(C)c2c(C)nc3ccc(C(=O)NCCc4ccccn4)cn23)cc1 | inactive: 16% | – |
| Cc1ccc(C)c(Cn2cnc3c(nnn3-c3ccc(F)cc3)c2=O)c1 | – | inconclusive: 29.1 µM [cytotoxic, single point] |
| Cc1ccccc1-c1nc(CS(=O)(=O)CC(=O)NCC(C)c2ccccc2)c(C)o1 (stereo not given) | – | inconclusive: 29.1 µM [cytotoxic, single point] |
| Cc1cccc(NC(=O)c2cc(NC(=O)c3ccccc3)ccc2N2CCCCC2)c1 | – | inconclusive: 1.64 µM [cytotoxic, full curve, poor fit] |
| C[C@@]12C(=O)N(c3ccc(F)cc3)C(=O)N1[C@@H]1c3ccccc3OC[C@@H]1[C@H]2c1ccccc1 | – | inconclusive: 29.1 µM [cytotoxic, single point] |
| Cn1c2c(c(=O)n(C)c1=O)C(C(F)(F)F)(C(F)(F)F)N=C(c1ccc(Cl)cc1)N2 | – | active: 2.31 µM |
| CCCCNC(=O)Nc1c(C(=O)OC)[nH]c2ccc(C)cc12 | – | inconclusive: 18.4 µM [cytotoxic, single point] |
| O=C(CCCCn1c(=O)c2ccccc2n(Cc2ccc(Cl)cc2)c1=O)NCc1ccco1 | – | active: 4.61 µM |
| COc1ccccc1N1CCN(c2ncc(C(=O)N3CCN(c4cccc(Cl)c4)CC3)c3ccccc23)CC1 | inactive: -34.2% | – |

| Compound | activity change, negative = cytotoxicity | Potency |
| --- | --- | --- |
| Cc1ccccc1S(=O)(=O)Cc1ccc(C(=O)NCCN2CCCCC2C)o1 (stereo not given) | inconclusive: 2.56% | – |
| CCCOc1ccc(C(CC(=O)O)NC(=O)CC(c2ccccc2)c2ccccc2)cc1 (stereo not given) | – | inconclusive: 16.4 µM [rising, single point] |
| Cc1cc(C)cc(-n2ncc3c2CCCC3NC(=O)CN2CCCCC2=O)c1 (stereo not given) | inactive: -0.258% | – |
| O=C(c1cccc(S(=O)(=O)NCc2ccccc2)c1)N1CCCC(C(F)(F)F)C1 (stereo not given) | inactive: -5.49% | – |
| CCc1ccccc1N=C1S/C(=C/c2ccccc2OCC(=O)N2CCOCC2)C(=O)N1C | – | inconclusive: 23.1 µM [cytotoxic, single point] |
| Cc1ccc(S(=O)(=O)Nc2ccc3nc(N)sc3c2)cc1 | – | active: 20.6 µM |
| O=C(NS(=O)(=O)c1ccc(Cl)cc1)c1ccccc1 | inactive: -2.69% | – |
| CN1/C(=C\C=N\O)C(C)(C)c2ccccc21 | inactive: 1.45% | – |
| Cc1cccc(OCCn2c(-c3ccc(Cl)cc3)nc3ccccc3c2=O)c1 | – | inconclusive: 16.4 µM [rising, partial curve] |
| CC(=O)Oc1cc2c(C(=O)NCCN3CCOCC3)c(C)oc2c2ccccc12 | – | inconclusive: 29.1 µM [cytotoxic, single point] |
| CCOC(=O)c1cnc2ccc(C)cc2c1Sc1ccc(F)cc1 | – | inconclusive: 16.4 µM [cytotoxic, single point] |
| CCc1cc(-c2cnnn2CCc2c[nH]c3ccccc23)ccc1-c1cn(CC(C)C)nn1 | – | inconclusive: 16.4 µM [cytotoxic, partial curve] |
| CCN(c1ccc2c(c1)OCO2)S(=O)(=O)c1cc(Br)cc2c1N(C(=O)C1CC1)CC2 | – | active: 5.17 µM |
| CCOC(=O)N1CCC(NC(=O)CSCc2nc(-c3ccccc3Cl)oc2C)CC1 | – | inconclusive: 3.66 µM [cytotoxic, full curve] |
| CCN1CCN(C(=O)NS(=O)(=O)c2ccc(C)cc2)CC1 | inactive: -1.46% | – |
| COc1cc(/C=C/c2c([N+](=O)[O-])c(=O)n(C)c(=O)n2C)cc(OC)c1OC | inactive: -20.5% | – |
| Cc1ccc(CCNC(=O)c2ccc3c(c2)N(Cc2ccccc2)C(=O)c2ccccc2S3=O)cc1 (stereo not given) | inactive: -12% | – |
| COc1ccc2nc(/C=N/NC(=O)CCCCCNC(=O)OC(C)(C)C)ccc2c1 | inactive: -25.8% | – |
| COc1ccc(NC(=O)Cn2c(=O)n(CCCC(=O)NCCc3ccc(C)cc3)c(=O)c3ccccc32)cc1Cl | inactive: 11.7% | – |
| CCCN(CC1CCCO1)C(=O)c1cc(COc2cccc(OC)c2)on1 (stereo not given) | – | inconclusive: 10.3 µM [cytotoxic, partial curve, poor fit] |
| CCCCOC(=O)CSc1nnc(-c2ccc(C)cc2)o1 | inactive: 13.6% | – |
| COc1ccc(-c2ccc(CN3C(C)C(=O)N(Cc4cn(Cc5ccco5)nn4)CCS3(=O)=O)cc2)cc1 (stereo not given) | – | inconclusive: 18.4 µM [cytotoxic, partial curve] |
